Data as given in PubChem BioAssay AID1224826 (NIAID, 2016).
Assay: 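Knock-downs that raise or lower Tnf reporter signal after endotoxin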 (primary screen). Cell system: RAW264.7 G9 macrophages from mouse bearing reporters for p65 (GFP) and the Tnf promoter (mCherry). Reagents: siRNA pool against mouse genes, 100 nM. Time to read-out: 16 h of LPS stimulation, after 2 days of siRNA transfection. Challenge: bacterial lipopolysaccharide (Salmonella minnesota R595), 10 ng/ml. Measured: 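Imaged Tnf reporter mCherry in nuclei, minus background, normalised per plate to the median and expressed as robust z-scores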. Reading the numbers: Tnf reporter robust z-score: higher = stronger Tnf promoter reporter signal after LPS; Tnf reporter intensity: higher = stronger Tnf promoter reporter signal. Call rule: 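a well counts as active at a score of -1.3 or below (Tlr4 knock-down control median) or above 3 (raised signal); controls and wells holding fewer than 50 cells are excluded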. Meaning of the calls: active = Tnf reporter clearly lowered or raised; inactive = no clear change in Tnf reporter.
In all, the deposit lists about 17,000 reagents; below is an unselected part. About 1,110 of all reagents (6.6%) were called active. 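Active means lowered or raised reporter signal; replicate intensities are raw and not normalised per plate.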 A number with no mark means an inactive call.

| Target gene | Tnf reporter robust z-score | fewer than 50 cells in well | Tnf reporter intensity, replicate 1 | Tnf reporter intensity, replicate 2 |
| --- | --- | --- | --- | --- |
| Palmd (palmdelphin) | -1.27 | enough cells in well | 100 | 60.7 |
| Ddx46 (DEAD box helicase 46) | -0.07 | enough cells in well | 212 | 135 |
| Rrm2 (ribonucleotide reductase M2) | -1.48 (active) | enough cells in well | 129 | 94.1 |
| Magea5 (MAGE family member A5) | -0.47 | enough cells in well | 191 | 97.6 |
| Ccdc198 (coiled-coil domain containing 198) | -0.02 | enough cells in well | 182 | 96.5 |
| Hddc3 (HD domain containing 3) | 0.31 | enough cells in well | 285 | 86.7 |
| Opn1sw | 1.54 | enough cells in well | 455 | 96.5 |
| A730089K16Rik (RIKEN cDNA A730089K16 gene) | -0.31 | enough cells in well | 142 | 150 |
| Laptm5 (lysosomal-associated protein transmembrane 5) | 0.68 | enough cells in well | 235 | 163 |
| Evx2 (even-skipped homeobox 2) | -0.7 | enough cells in well | 181 | 109 |
| Or5g26 (olfactory receptor family 5 subfamily G member 26) | 3.4 (active) | enough cells in well | 387 | 259 |
| Lsamp (limbic system-associated membrane protein) | 3.68 (active) | enough cells in well | 509 | 258 |
| Secisbp2l (SECIS binding protein 2-like) | – | fewer than 50 cells per well; well left out of calls | 25.9 | 51.5 |
| Actr10 (ARP10 actin-related protein 10) | -0.42 | enough cells in well | 98.3 | 157 |
| Galnt12 (polypeptide N-acetylgalactosaminyltransferase 12) | -0.87 | enough cells in well | 134 | 123 |
| Tff1 (trefoil factor 1) | – | fewer than 50 cells per well; well left out of calls | 69.1 | 63.6 |

5 entries already listed, ordered by “Tnf reporter intensity, replicate 2”, high to low.
| Target gene | Tnf reporter robust z-score | fewer than 50 cells in well | Tnf reporter intensity, replicate 1 | Tnf reporter intensity, replicate 2 |
| --- | --- | --- | --- | --- |
| Magea5 (MAGE family member A5) | -0.47 | enough cells in well | 191 | 97.6 |
| Ccdc198 (coiled-coil domain containing 198) | -0.02 | enough cells in well | 182 | 96.5 |
| Opn1sw | 1.54 | enough cells in well | 455 | 96.5 |
| Rrm2 (ribonucleotide reductase M2) | -1.48 (active) | enough cells in well | 129 | 94.1 |
| Hddc3 (HD domain containing 3) | 0.31 | enough cells in well | 285 | 86.7 |

The results go on.
| Target gene | Tnf reporter robust z-score | fewer than 50 cells in well | Tnf reporter intensity, replicate 1 | Tnf reporter intensity, replicate 2 |
| --- | --- | --- | --- | --- |
| Tdh (L-threonine dehydrogenase) | -0.82 | enough cells in well | 91.4 | 62.3 |
| Il31ra (interleukin 31 receptor A) | 0.44 | enough cells in well | 220 | 213 |
| Fgf17 (fibroblast growth factor 17) | -0.62 | enough cells in well | 212 | 178 |
| Cplx2 (complexin 2) | -0.7 | enough cells in well | 161 | 114 |
| Hhipl2 (hedgehog interacting protein-like 2) | – | fewer than 50 cells per well; well left out of calls | 137 | 42.8 |
| Avpr2 (arginine vasopressin receptor 2) | 0.9 | enough cells in well | 242 | 453 |
| Itgb6 (integrin beta 6) | 1.42 | enough cells in well | 364 | 216 |
| Cenatac (centrosomal AT-AC splicing factor) | 2.63 | enough cells in well | 329 | 325 |
| Rnf32 (ring finger protein 32) | – | fewer than 50 cells per well; well left out of calls | 49.7 | 36.6 |
| Cep290 (centrosomal protein 290) | -0.07 | enough cells in well | 227 | 173 |
| Eapp (E2F-associated phosphoprotein) | 0.52 | enough cells in well | 254 | 97.8 |
| B230220N19Rik (RIKEN cDNA B230220N19 gene) | -0.24 | enough cells in well | 152 | 156 |
| 5930403N24Rik (RIKEN cDNA 5930403N24 gene) | 2.91 | enough cells in well | 308 | 331 |
| Ppp3ca (protein phosphatase 3, catalytic subunit, alpha isoform) | 0.11 | enough cells in well | 245 | 208 |
| Tmem223 (transmembrane protein 223) | -1.06 | enough cells in well | 185 | 44.1 |
| Kcnb2 | -0.09 | enough cells in well | 150 | 157 |
| Cd52 (CD52 antigen) | -1.55 (active) | enough cells in well | 71.2 | 94.4 |
| Folh1 (folate hydrolase 1) | -0.77 | enough cells in well | 235 | 133 |
| Sp6 (trans-acting transcription factor 6) | – | fewer than 50 cells per well; well left out of calls | 0 | 300 |
| Slc8a3 | 0.13 | enough cells in well | 127 | 83.4 |
| Klhl17 (kelch-like 17) | 0.98 | enough cells in well | 0 | 220 |
| Slc13a2 | 1.58 | enough cells in well | 171 | 137 |
| Mmp19 (matrix metallopeptidase 19) | 0.75 | enough cells in well | 296 | 285 |
| Sc5d (sterol-C5-desaturase) | 1.19 | enough cells in well | 185 | 173 |
